Among all 320,000 compounds or so, about 22,000 (6.9%) were called active. The inconclusive results got no clear call from the source; some entries with a clear call stand among them for comparison. The call rests on the fitted dose curve; in most records, active means well fitted inhibition curve with a large enough effect; inconclusive means small, poorly fitted or top-dose-only effect, or another doubt; inactive means no such curve, though single readings can be large or run the other way. Where the call is inconclusive, the potency comes from a doubtful curve fit.
experiment: Primary qHTS for delayed death inhibitors of the malarial parasite plastid, 96 hour incubation; conditions: P. falciparum luciferase reporter growth; series mostly up to 28.7 µM; activity change, negative = inhibition: at the top concentration
Procedure, shortened: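 Compounds incubated with erythrocytes infected by luciferase-expressing P. falciparum (2% hematocrit, 0.05% parasitemia final) for 96 hours, 37 C in 5% CO2. Growth inhibition scored as decreased luciferase luminescence.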
On the % scale 0 is the no-effect control and ±100 the full control effect; potency means the concentration at half of the fitted maximal effect.

SMILES	activity change, negative = inhibition	Potency
Cc1cc(C)nc(SCc2nnc(SCC(=O)Nc3ccccc3C)n2Cc2ccco2)n1	inactive: 3.63%	–
CCN(c1ccccc1)S(=O)(=O)c1cccc(C(=O)Nc2ccc(C)cn2)c1	–	active: 9.28 µM
Fc1cc2[nH]c(=S)[nH]c2cc1Cl	–	inconclusive: 0.0828 µM [inhibitor, full curve, poor fit]
CC(=O)c1cccc(NC(=O)NNC(=O)c2ccc3ccccc3c2)c1	–	inconclusive: 10.4 µM [inhibitor, single point]
CCC1(c2ccccc2)NC(=O)N(CC(=O)Nc2cc(S(=O)(=O)N3CCCCC3)ccc2N(C)C)C1=O (stereo not given)	–	inconclusive: 9.28 µM [inhibitor, single point]
c1ccc(-c2csc(N3CCSCC3)n2)cc1	–	inconclusive: 18.5 µM [inhibitor, single point]
Cc1cc(F)ccc1S(=O)(=O)N1CCCOC1CNC(=O)C(=O)NCc1ccco1 (stereo not given)	–	inconclusive: 10.4 µM [inhibitor, partial curve, poor fit]
Cc1ccc(-c2nc3cccnc3s2)cc1NC(=O)C1c2ccccc2Oc2ccccc21	inactive: -19.9%	–
O=C(NC(=S)Nc1ccccc1N1CCOCC1)c1ccc(-c2cc(Cl)ccc2Cl)o1	inactive: 209%	–
CCOC(=O)CN1C(=O)C2(OCCCO2)c2cc(Br)ccc21	–	inconclusive: 0.294 µM [inhibitor, full curve, poor fit]
Cc1cc(C)nc(SCC(=O)N/N=C/c2cccnc2)n1	–	inconclusive: 5.86 µM [inhibitor, partial curve, poor fit]
COc1cccc(CCNC(=O)c2cccc(NC(=O)C3=C(C)OCCS3)c2)c1	–	active: 11.7 µM
O=C(CCn1cnnn1)Nc1ccc(F)cc1	inactive: 1.39%	–
Cc1ccc(S(=O)(=O)N(C)C)cc1NC(=S)NC(C)CCC(C)C (stereo not given)	inactive: -29.5%	–
COc1ccc(CCNC(=O)c2cc(S(=O)(=O)N3CCCCC3)ccc2Cl)cc1	–	inconclusive: 9.28 µM [inhibitor, single point]
Cc1ccccc1NC(=O)c1ccc(Cl)c(NC(=O)c2ccncc2)c1	–	inconclusive: 14.7 µM [inhibitor, single point]
CC(C)CCN1CCN(CCCc2ccccc2)CC1CCO (stereo not given)	–	inconclusive: 10.4 µM [inhibitor, single point]
Cc1cc(CN(C)C(=O)c2cc(COc3ccc(F)cc3Cl)on2)n[nH]1	inactive: 13.8%	–
COc1cccc(S(=O)(=O)NCc2ccc(C(=O)N3CCN(c4ccccc4)CC3)cc2)c1	–	inconclusive: 18.5 µM [inhibitor, single point]
NNC(=O)c1ccc(Cn2cc(Br)cn2)cc1	–	inconclusive: 11.7 µM [inhibitor, partial curve]
CCOC(=O)N1CCN(c2nc3ccc(C)cc3n3cnnc23)CC1	–	inconclusive: 0.0029 µM [inhibitor, full curve, poor fit]
CCOC(=O)c1cc(/C(C)=N/OC(=O)c2ccc(Cl)cc2)on1	inactive: 1.47%	–
Cc1ccc(S(C)(=O)=N/C=C2\C(=O)c3sccc3N(C)S2(=O)=O)cc1 (stereo not given)	–	inconclusive: 0.37 µM [inhibitor, full curve, poor fit]

Exported as comma-separated lines: 13 of the compounds above
SMILES,"activity change, negative = inhibition",Potency
CCN(c1ccccc1)S(=O)(=O)c1cccc(C(=O)Nc2ccc(C)cn2)c1,–,active: 9.28 µM
Fc1cc2[nH]c(=S)[nH]c2cc1Cl,–,"inconclusive: 0.0828 µM [inhibitor, full curve, poor fit]"
CC(=O)c1cccc(NC(=O)NNC(=O)c2ccc3ccccc3c2)c1,–,"inconclusive: 10.4 µM [inhibitor, single point]"
CCC1(c2ccccc2)NC(=O)N(CC(=O)Nc2cc(S(=O)(=O)N3CCCCC3)ccc2N(C)C)C1=O (stereo not given),–,"inconclusive: 9.28 µM [inhibitor, single point]"
c1ccc(-c2csc(N3CCSCC3)n2)cc1,–,"inconclusive: 18.5 µM [inhibitor, single point]"
Cc1cc(F)ccc1S(=O)(=O)N1CCCOC1CNC(=O)C(=O)NCc1ccco1 (stereo not given),–,"inconclusive: 10.4 µM [inhibitor, partial curve, poor fit]"
Cc1ccc(-c2nc3cccnc3s2)cc1NC(=O)C1c2ccccc2Oc2ccccc21,inactive: -19.9%,–
O=C(NC(=S)Nc1ccccc1N1CCOCC1)c1ccc(-c2cc(Cl)ccc2Cl)o1,inactive: 209%,–
CCOC(=O)CN1C(=O)C2(OCCCO2)c2cc(Br)ccc21,–,"inconclusive: 0.294 µM [inhibitor, full curve, poor fit]"
Cc1cc(C)nc(SCC(=O)N/N=C/c2cccnc2)n1,–,"inconclusive: 5.86 µM [inhibitor, partial curve, poor fit]"
COc1cccc(CCNC(=O)c2cccc(NC(=O)C3=C(C)OCCS3)c2)c1,–,active: 11.7 µM
O=C(CCn1cnnn1)Nc1ccc(F)cc1,inactive: 1.39%,–
Cc1ccc(S(=O)(=O)N(C)C)cc1NC(=S)NC(C)CCC(C)C (stereo not given),inactive: -29.5%,–

More records:

SMILES	activity change, negative = inhibition	Potency
CCCSc1nnc(-c2cccc(S(=O)(=O)N(C)C)c2)n1-c1cc(OC)ccc1OC	–	inconclusive: 9.28 µM [inhibitor, single point]
COc1ccccc1NS(=O)(=O)c1cc(NC(=O)C(C)(C)C)ccc1N1CCOCC1	–	inconclusive: 0.0047 µM [inhibitor, full curve, poor fit]
O=C(O)C1C2CCC(C2)C1C(=O)Nc1nc2ccccc2s1 (stereo not given)	–	inconclusive: 0.294 µM [inhibitor, partial curve, poor fit]
COc1cccc(-c2cc3nc4c(c(N5CCC6(CC5)OCCO6)n3n2)CCC4)c1	–	inconclusive: 4.15 µM [inhibitor, single point]
CCOC(=O)C1=C(C)OC(N)=C(C#N)C1c1cccs1 (stereo not given)	inactive: -8.49%	–
COc1cccc(-c2nc(-c3ccccc3)no2)c1	–	inconclusive: 13.1 µM [inhibitor, single point]
Cc1cc(Sc2nc(NC(C)(C)C)nc(N3CCOCC3)n2)nc(Cl)n1	–	inconclusive: 18.5 µM [inhibitor, single point]
C=CCNCCOc1ccccc1-c1ccccc1	–	inconclusive: 11.7 µM [inhibitor, single point]
CCOc1ccccc1C(=O)n1nc(C)cc1C	inactive: -5.56%	–
N#Cc1cc(Oc2ccccc2)c(-n2nnc3ccccc32)cc1C#N	inactive: 3.14%	–
O=C(Nc1ccc(F)c(Cl)c1)Nc1ccc(Cl)cn1	inactive: 28.2%	–
COc1ccccc1C(=O)Nc1ccc(N2CCN(S(C)(=O)=O)CC2)cc1	–	inconclusive: 18.5 µM [inhibitor, single point]
CCOC(=O)C1CCCN(c2c(Nc3cc(C)cc(C)c3)c(=O)c2=O)C1 (stereo not given)	–	active: 9.28 µM
CCn1cc(NC(=O)Nc2ccc(OC)c(OC)c2)c(C(N)=O)n1	–	inconclusive: 4.65 µM [inhibitor, partial curve, poor fit]
COc1ccc2cc(C)c3nnc(SCC(=O)Nc4nc(-c5ccccc5)cs4)n3c2c1	–	inconclusive: 3.7 µM [inhibitor, full curve, poor fit]
O=C(COC(=O)CCN1C(=O)C2CC=CCC2C1=O)Nc1ccc(Cl)cc1F (stereo not given)	inactive: -24.5%	–
C=CCN1C(=O)CN=C1Nc1ccc(F)cc1	–	inconclusive: 7.38 µM [inhibitor, partial curve]
C=CCc1cc(Cl)ccc1OC(=O)Nc1cccc(Cl)c1	–	inconclusive: 18.5 µM [inhibitor, single point]
O=c1[nH]c(CN2CCN(S(=O)(=O)c3ccc(Cl)cc3)CC2)nc2cc(Cl)ccc12	–	inconclusive: 18.5 µM [inhibitor, single point]
COC(=O)c1cc(-c2cccs2)nc2ccccc12	–	inconclusive: 3.29 µM [inhibitor, full curve, poor fit]
COc1ccc(C(=O)NC(C(=O)N2CCc3ccccc32)C(C)C)cc1 (stereo not given)	–	inconclusive: 5.86 µM [inhibitor, partial curve]
Cc1cccc(C)c1OC(=O)CN(c1ccc(Cl)cc1)S(C)(=O)=O	–	inconclusive: 18.5 µM [inhibitor, single point]

From PubChem BioAssay AID504834 (National Center for Advancing Translational Sciences (NCATS), 2011)
